Structures can show the parent of a compound that is named as a salt. The list shows a part of the results. This is a noisy data set.
Test system: Peyronie's disease tunica albuginea primary fibroblasts
Assay: cell viability (DRAQ5 nuclear stain) relative to TGF-beta1-only control; higher = more viable cells
Details: 10 µM; TGF-beta1 10 ng/mL; 72 h

| Structure (SMILES) | cell viability |
| --- | --- |
| NC1=NCC2c3ccccc3Cc3ccccc3N12 (configuration not stated) [Epinastine HCl] | 65.3% |
| Cn1nnc(-c2ccc(-c3ccc(N4C[C@H](CO)OC4=O)cc3F)cn2)n1 [Tedizolid] | 87.9% |
| Cc1cccc(Nc2ccncc2S(=O)(=O)NC(=O)NC(C)C)c1 [Torsemide] | 92.5% |
| O=C1N=C(O)NC1(c1ccccc1)c1ccccc1 [Phenytoin Sodium] | 99.9% |
| CCNC(=O)[C@@H]1CCCN1C(=O)[C@H](CCCNC(=N)N)NC(=O)[C@H](CC(C)C)NC(=O)[C@@H](CC(C)C)NC(=O)[C@H](Cc1ccc(O)cc1)NC(=O)[C@H](CO)NC(=O)[C@H](Cc1c[nH]c2ccccc12)NC(=O)[C@H](Cc1c[nH]cn1)NC(=O)[C@@H]1CCC(=O)N1 [Leuprorelin Acetate] | 102% |
| CCNC(=O)[C@@H]1CCCN1C(=O)[C@H](CCCNC(=N)N)NC(=O)[C@H](CC(C)C)NC(=O)[C@@H](CC(C)C)NC(=O)[C@H](Cc1ccc(O)cc1)NC(=O)[C@H](CO)NC(=O)[C@H](Cc1c[nH]c2ccccc12)NC(=O)[C@H](Cc1c[nH]cn1)NC(=O)[C@@H]1CCC(=O)N1 [Leuprolide Acetate] | 82.7% |
| CN(C)c1cc(NC(=O)CNC(C)(C)C)c(O)c2c1C[C@H]1C[C@H]3[C@H](N(C)C)C(O)=C(C(N)=O)C(=O)[C@@]3(O)C(O)=C1C2=O [Tigecycline] | 89.9% |
| CC1(C)O[C@@H]2[C@@H](CO[C@@]3(COS(N)(=O)=O)OC(C)(C)O[C@@H]23)O1 [Topiramate] | 47.5% |
| COc1cc(NS(=O)(=O)c2ccc(N)cc2)nc(OC)n1 [Sulphadimethoxine] | 85.4% |
| Cc1ccccc1C(=O)Nc1ccc(C(=O)N2CCCC(N(C)C)c3ccccc32)cc1 (configuration not stated) [Mozavaptan] | 93.8% |
| CN(Cc1ccc(C(C)(C)C)cc1)Cc1cccc2ccccc12 [Butenafine HCl] | 94.3% |
| S=c1[nH]cnc2nc[nH]c12 [Mercaptopurine (6-MP)] | 90.4% |
| CC1(C)S[C@@H]2[C@H](NC(=O)COc3ccccc3)C(=O)N2[C@H]1C(=O)O [Penicillin V potassium salt] | 100% |
| COc1ccc2c3c1O[C@H]1C[C@@H](O)C=C[C@@]31CCN(C)C2 [Galanthamine HBr] | 98% |
| O=c1[nH]c(=O)n([C@H]2C[C@H](O)[C@@H](CO)O2)cc1C(F)(F)F [Trifluridine] | 88.8% |
| Cc1cc(C#N)cc(C)c1Oc1nc(Nc2ccc(C#N)cc2)nc(N)c1Br [Etravirine (TMC125)] | 92.1% |
| c1cc(CN2CCCNCCNCCCNCC2)ccc1CN1CCCNCCNCCCNCC1 [Plerixafor (AMD3100)] | 110% |
| c1cc(CN2CCCNCCNCCCNCC2)ccc1CN1CCCNCCNCCCNCC1 [Plerixafor 8HCl (AMD3100 8HCl)] | 102% |
| CC1(C)[C@@H](O)CC[C@]2(C)[C@H]3C(=O)C=C4[C@@H]5C[C@@](C)(C(=O)O)CC[C@]5(C)CC[C@@]4(C)[C@]3(C)CC[C@@H]12 [Enoxolone] | 101% |
| O=C(O)c1ccc(NC(=O)[C@H](Cc2ccc(O)cc2)NC(=O)c2ccccc2)cc1 [Bentiromide] | 83.5% |
| O=C(O)c1ccc(-n2nc(-c3ccccc3O)nc2-c2ccccc2O)cc1 [Deferasirox] | 73.9% |
| NCCS [Cysteamine HCl] | 89.4% |
| COCCOC(=O)C1=C(C)NC(C)=C(C(=O)OC(C)C)C1c1cccc([N+](=O)[O-])c1 (configuration not stated) [Nimodipine] | 97.2% |

Individual results from the entries so far:
cell viability, CCNC(=O)[C@@H]1CCCN1C(=O)[C@H](CCCNC(=N)N)NC(=O)[C@H](CC(C)C)NC(=O)[C@@H](CC(C)C)NC(=O)[C@H](Cc1ccc(O)cc1)NC(=O)[C@H](CO)NC(=O)[C@H](Cc1c[nH]c2ccccc12)NC(=O)[C@H](Cc1c[nH]cn1)NC(=O)[C@@H]1CCC(=O)N1 [Leuprolide Acetate] reads 82.7%
cell viability, O=c1[nH]c(=O)n([C@H]2C[C@H](O)[C@@H](CO)O2)cc1C(F)(F)F [Trifluridine] reads 88.8%
cell viability, COc1ccc2c3c1O[C@H]1C[C@@H](O)C=C[C@@]31CCN(C)C2 [Galanthamine HBr] reads 98%
cell viability, c1cc(CN2CCCNCCNCCCNCC2)ccc1CN1CCCNCCNCCCNCC1 [Plerixafor (AMD3100)] reads 110%

Following part.

| Structure (SMILES) | cell viability |
| --- | --- |
| COc1c(C)c2c(c(O)c1C/C=C(\C)CCC(=O)OCCN1CCOCC1)C(=O)OC2 [Mycophenolate Mofetil] | 51.1% |
| CN1C(C(=O)Nc2ccccn2)=C(O)c2ccccc2S1(=O)=O [Piroxicam] | 94% |
| CC(C)C[C@H](NC(=O)CNC(=O)[C@H](Cc1ccc(O)cc1)NC(=O)[C@H](CO)NC(=O)[C@H](Cc1c[nH]c2ccccc12)NC(=O)[C@H](Cc1cnc[nH]1)NC(=O)[C@@H]1CCC(=O)N1)C(=O)N[C@@H](CCCNC(=N)N)C(=O)N1CCC[C@H]1C(=O)NCC(N)=O [Gonadorelin Acetate] | 103% |
| COC(=O)CCc1ccc(OCC(O)CNC(C)C)cc1 (configuration not stated) [Esmolol HCl] | 93.2% |
| NCC(=O)CCC(=O)O [5-Aminolevulinic acid HCl] | 91.1% |
| Cc1ccc(Sc2ccccc2N2CCNCC2)c(C)c1 | 80% |
| Cc1ccc(Sc2ccccc2N2CCNCC2)c(C)c1 [Vortioxetine] | 62.9% |
| O=C(O)/C=C/C(=O)O [Fumaric acid] | 90.9% |
| O=C(O)C[C@H](O)C[C@H](O)/C=C/c1c(C2CC2)nc2ccccc2c1-c1ccc(F)cc1 [Pitavastatin Calcium] | 40% |
| Cc1ccc(C)c(OCCCC(C)(C)C(=O)O)c1 [Gemfibrozil] | 95.8% |
| NS(=O)(=O)Cc1noc2ccccc12 [Zonisamide] | 78.9% |
| COc1ccc2c(c1)C(=O)N(CCc1ccc(S(=O)(=O)NC(=O)NC3CCCCC3)cc1)C(=O)C2(C)C [Gliquidone] | 95.8% |
| Cc1cn([C@H]2C[C@H](N=[N+]=[N-])[C@@H](CO)O2)c(=O)[nH]c1=O [Zidovudine] | 94.7% |
| COc1ccc([C@@H]2Sc3ccccc3N(CCN(C)C)C(=O)[C@@H]2OC(C)=O)cc1 [Diltiazem HCl] | 88.8% |
| NCCC(O)(P(=O)(O)O)P(=O)(O)O [Pamidronate Disodium] | 106% |
| CC(C[N+](C)(C)C)OC(N)=O (configuration not stated) [Bethanechol chloride] | 95.8% |
| CCCNC(C)C(=O)Nc1c(C)csc1C(=O)OC (configuration not stated) [Articaine HCl] | 97.3% |
| Cc1ccc(C(=O)C(C)CN2CCCCC2)cc1 (configuration not stated) [Tolperisone HCl] | 94.2% |
| CNCC[C@@H](Oc1ccccc1C)c1ccccc1 [Atomoxetine HCl] | 95.2% |
| CC(C)(O)CNc1nc(Nc2ccnc(C(F)(F)F)c2)nc(-c2cccc(C(F)(F)F)n2)n1 [Enasidenib (AG-221)] | 102% |
| C[C@@H](Oc1cc(-c2cnn(C3CCNCC3)c2)cnc1N)c1c(Cl)ccc(F)c1Cl | 48.7% |
| COCCCOc1ccnc(C[S+]([O-])c2nc3ccccc3[nH]2)c1C (configuration not stated) [Rebeprazole sodium] | 83.4% |
| COCCCOc1ccnc(C[S+]([O-])c2nc3ccccc3[nH]2)c1C (configuration not stated) [Rabeprazole] | 75.7% |

| Structure (SMILES) | cell viability |
| --- | --- |
| O=C(O)Cc1cc(I)c(Oc2ccc(O)c(I)c2)c(I)c1 [Tiratricol] | 101% |
| Cc1cc(Nc2ncc(Cl)c(Nc3ccccc3S(=O)(=O)C(C)C)n2)c(OC(C)C)cc1C1CCNCC1 [Ceritinib (LDK378)] | 41.6% |
| CCCCOC(=O)c1ccc(O)cc1 [Butylparaben] | 90.1% |
| COCCCOc1cc(C[C@@H](C[C@H](N)[C@@H](O)C[C@H](C(=O)NCC(C)(C)C(N)=O)C(C)C)C(C)C)ccc1OC [Aliskiren Hemifumarate] | 91.9% |
| CCCc1nc2c(C)cc(-c3nc4ccccc4n3C)cc2n1Cc1ccc(-c2ccccc2C(=O)O)cc1 [Telmisartan] | 92.5% |
| Cc1ccc(C(=O)N(CCCN)[C@@H](c2nc3cc(Cl)ccc3c(=O)n2Cc2ccccc2)C(C)C)cc1 | 48.1% |
| CC(=O)/N=c1/sc(S(N)(=O)=O)nn1C [Methazolamide] | 98.7% |
| CCCCC[C@](C)(O)/C=C/[C@@H]1[C@@H](C/C=C\CCCC(=O)O)[C@@H](O)C[C@H]1O [Carboprost] | 82.6% |
| CC1=CC(=O)c2ccccc2C1=O [Menadione] | 83.7% |
| COc1cc2ncnc(Nc3ccc(F)c(Cl)c3)c2cc1NC(=O)/C=C/CN1CCCCC1 | 69% |
| CCCCC1C(=O)N(c2ccccc2)N(c2ccccc2)C1=O [Phenylbutazone] | 93.9% |
| O=C(Nc1ccccc1)OCC(CN1CCCCC1)OC(=O)Nc1ccccc1 (configuration not stated) [Diperodon HCl] | 94.6% |
| CO[C@H]1O[C@H](COS(=O)(=O)O)[C@@H](O[C@@H]2O[C@@H](C(=O)O)[C@@H](O[C@H]3O[C@H](COS(=O)(=O)O)[C@@H](O[C@@H]4O[C@H](C(=O)O)[C@@H](O[C@H]5O[C@H](COS(=O)(=O)O)[C@@H](O)[C@H](O)[C@H]5NS(=O)(=O)O)[C@H](O)[C@H]4O)[C@H](OS(=O)(=O)O)[C@H]3NS(=O)(=O)O)[C@H](O)[C@H]2OS(=O)(=O)O)[C@H](O)[C@H]1NS(=O)(=O)O [Fondaparinux Sodium] | 82.8% |
| C[C@@H]1O[C@@H](OC[C@H]2O[C@@H](Oc3c(-c4ccc(O)c(O)c4)oc4cc(O)cc(O)c4c3=O)[C@H](O)[C@@H](O)[C@@H]2O)[C@H](O)[C@H](O)[C@H]1O [Rutin] | 91.8% |
| CN1[C@@H]2CC[C@H]1C[C@@H](OC(c1ccccc1)c1ccccc1)C2 [Benztropine mesylate] | 89% |
| CO/N=C(\C(=O)N[C@@H]1C(=O)N2C(C(=O)O)=C(CSC(=O)c3ccco3)CS[C@H]12)c1csc(N)n1 [Ceftiofur HCl] | 86.4% |
| CO/N=C(\C(=O)N[C@@H]1C(=O)N2C(C(=O)O)=C(CSC(=O)c3ccco3)CS[C@H]12)c1csc(N)n1 [Ceftiofur] | 94.7% |
| C/C(O)=C(\C#N)C(=O)Nc1ccc(C(F)(F)F)cc1 [Teriflunomide] | 105% |
| COc1nc(C)cnc1NS(=O)(=O)c1cccnc1-c1ccc(-c2nnco2)cc1 [Zibotentan (ZD4054)] | 94.7% |
| N[C@@H](CC(=O)N1CCn2c(nnc2C(F)(F)F)C1)Cc1cc(F)c(F)cc1F [Sitagliptin phosphate monohydrate] | 89.6% |
| N[C@@H](CC(=O)N1CCn2c(nnc2C(F)(F)F)C1)Cc1cc(F)c(F)cc1F [Sitagliptin] | 95.9% |

— the supplement of paper PMC9744312
